Here are results for one substance from paper PMC8528824.

The chains behind the UniProt entries cited, without tags or fusion partners. Residues count along the entry.
UniProt P16066, residues 33-1061: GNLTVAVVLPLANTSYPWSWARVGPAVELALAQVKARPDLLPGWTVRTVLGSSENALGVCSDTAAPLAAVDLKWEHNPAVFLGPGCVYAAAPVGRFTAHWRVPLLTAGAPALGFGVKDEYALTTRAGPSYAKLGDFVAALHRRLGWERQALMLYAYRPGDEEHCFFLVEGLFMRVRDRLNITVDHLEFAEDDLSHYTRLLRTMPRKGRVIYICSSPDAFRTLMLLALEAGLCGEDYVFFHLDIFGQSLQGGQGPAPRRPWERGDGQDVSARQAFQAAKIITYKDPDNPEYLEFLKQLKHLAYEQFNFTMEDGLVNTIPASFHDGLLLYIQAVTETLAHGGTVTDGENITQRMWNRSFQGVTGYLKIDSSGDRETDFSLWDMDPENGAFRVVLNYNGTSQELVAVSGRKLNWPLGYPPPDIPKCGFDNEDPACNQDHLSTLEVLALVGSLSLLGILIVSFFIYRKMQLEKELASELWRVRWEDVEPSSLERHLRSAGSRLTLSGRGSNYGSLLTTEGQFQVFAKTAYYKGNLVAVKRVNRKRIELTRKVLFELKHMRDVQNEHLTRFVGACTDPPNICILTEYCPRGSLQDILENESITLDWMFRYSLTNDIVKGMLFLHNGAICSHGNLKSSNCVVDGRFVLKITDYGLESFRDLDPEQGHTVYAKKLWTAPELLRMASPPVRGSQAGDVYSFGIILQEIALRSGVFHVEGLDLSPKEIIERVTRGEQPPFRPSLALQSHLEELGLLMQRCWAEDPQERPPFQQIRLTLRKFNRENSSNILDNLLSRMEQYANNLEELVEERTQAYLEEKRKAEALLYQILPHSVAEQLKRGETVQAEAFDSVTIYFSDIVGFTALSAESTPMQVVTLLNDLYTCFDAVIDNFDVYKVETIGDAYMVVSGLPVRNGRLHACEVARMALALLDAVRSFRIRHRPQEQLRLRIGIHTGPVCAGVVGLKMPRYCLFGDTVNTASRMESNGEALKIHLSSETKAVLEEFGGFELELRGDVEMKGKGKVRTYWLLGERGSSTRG
UniProt Q16665: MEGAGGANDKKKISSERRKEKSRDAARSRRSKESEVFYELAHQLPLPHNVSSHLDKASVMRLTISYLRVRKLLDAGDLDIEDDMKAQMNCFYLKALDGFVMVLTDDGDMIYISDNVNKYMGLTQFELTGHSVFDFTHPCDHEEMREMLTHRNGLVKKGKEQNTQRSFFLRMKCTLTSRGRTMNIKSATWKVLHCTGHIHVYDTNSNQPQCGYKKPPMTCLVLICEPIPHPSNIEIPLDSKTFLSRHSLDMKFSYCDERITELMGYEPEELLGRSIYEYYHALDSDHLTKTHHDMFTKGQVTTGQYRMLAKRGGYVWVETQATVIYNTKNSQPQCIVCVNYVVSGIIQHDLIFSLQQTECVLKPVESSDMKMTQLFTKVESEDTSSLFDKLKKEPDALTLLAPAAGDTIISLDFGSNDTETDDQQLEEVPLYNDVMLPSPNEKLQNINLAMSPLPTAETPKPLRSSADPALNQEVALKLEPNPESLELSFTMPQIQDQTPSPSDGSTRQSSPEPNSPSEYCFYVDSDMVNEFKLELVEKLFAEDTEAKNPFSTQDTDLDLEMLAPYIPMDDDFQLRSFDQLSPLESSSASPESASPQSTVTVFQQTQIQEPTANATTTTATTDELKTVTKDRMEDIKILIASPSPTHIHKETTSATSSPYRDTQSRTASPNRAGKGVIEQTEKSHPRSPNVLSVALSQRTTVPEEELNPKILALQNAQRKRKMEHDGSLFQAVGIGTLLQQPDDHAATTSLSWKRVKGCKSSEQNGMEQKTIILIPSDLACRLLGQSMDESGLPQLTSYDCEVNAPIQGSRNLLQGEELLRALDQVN

The target in this assay is Natriuretic peptide receptor A (human (endogenous in AGS)) (UniProt P16066). Description: affinity purification with mass spectrometry; IP from total protein of GC cells with primary antibody and protein A/G-agarose beads; immunoprecipitates analysed by MS.

Results are given in words; binding and its absence hold for the method and conditions named. Binding seen in cells or lysates may run through a third protein. A yes stands for co-enrichment or nearness to the bait. Other partners may have been found.

For “Hypoxia-inducible factor-1 alpha (from UniProt Q16665 1-826)”, the binding entry is on record as “binds”.
